Reference: PubChem BioAssay AID1508597 (Cure First, 2020)
Test: 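Survival screen with siRNA in ovarian cancer cells derived from patients, with or without rucaparib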 (primary screen). Cells: human ovarian carcinoma lines grown from tumours: OCI-P5x (papillary serous) and OCI-C5x (clear cell). Reagents: siRNA pool against human genes, 1.25 pmol siRNA per well. Duration: 72 h or 96 h, depending on the cell culture. Conditions: rucaparib 20 µM (about IC30) or vehicle, present until read-out. Rucaparib or vehicle: Rucaparib. Cell line: OCI-P5x (serous). Measured: 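ATP luminescence measured at 72 or 96 h according to the culture, then normalised and expressed as percent viability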. Reading the numbers: viability, normalised: higher = more viable cells remaining. Call rule: 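Active when normalised viability falls below 80 percent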. Calls: active = viability under 80%; inactive = viability 80% or more.
This is a random part of the about 2,100 reagents, in one setting of the screen. 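Calls flag viability under 80% in either arm, not effects specific to rucaparib; the reference for percent is not stated.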 Some reagents were tested in more than one well and are listed for each. Reagent sequences are not shown. The record does not give: the 100% reference.

For H4C5 (H4 clustered histone 5) [SID405526866], technical replicate 1, the entry reads viability, normalised (%) = 73; active.
With H4C5 (H4 clustered histone 5) [SID405526866], technical replicate 2, the entry reads viability, normalised (%) = 75.7; active.
With H4C5 (H4 clustered histone 5) [SID405526866], technical replicate 3, the values are viability, normalised (%) = 69.9; active.
With AURKB (aurora kinase B) [SID405527379], technical replicate 1, the values are viability, normalised (%) = 61.3; active.
AURKB (aurora kinase B) [SID405527379], technical replicate 1 gave viability, normalised (%) = 103; inactive.
With AURKB (aurora kinase B) [SID405527379], technical replicate 2 the deposit lists viability, normalised (%) = 113; inactive.
For AURKB (aurora kinase B) [SID405527379], technical replicate 2, the values are viability, normalised (%) = 61.1; active.
For AURKB (aurora kinase B) [SID405527379], technical replicate 3, the values are viability, normalised (%) = 102; inactive.
With AURKB (aurora kinase B) [SID405527379], technical replicate 3, the values are viability, normalised (%) = 61.6; active.
With MAP2K4 (mitogen-activated protein kinase kinase 4) [SID405527483], technical replicate 1, the values are viability, normalised (%) = 85.6; inactive.
MAP2K4 (mitogen-activated protein kinase kinase 4) [SID405527483], technical replicate 2 gave viability, normalised (%) = 84.1; inactive.
With MAP2K4 (mitogen-activated protein kinase kinase 4) [SID405527483], technical replicate 3, the values are viability, normalised (%) = 77.8; active.
NEK10 (NIMA related kinase 10) [SID405527542], technical replicate 1 scored viability, normalised (%) = 98.4; inactive.
With NEK10 (NIMA related kinase 10) [SID405527542], technical replicate 2 the deposit lists viability, normalised (%) = 102; inactive.
For NEK10 (NIMA related kinase 10) [SID405527542], technical replicate 3, the entry reads viability, normalised (%) = 104; inactive.
For SRC (SRC proto-oncogene, non-receptor tyrosine kinase) [SID405527376], technical replicate 1, the values are viability, normalised (%) = 79.7; active.
For SRC (SRC proto-oncogene, non-receptor tyrosine kinase) [SID405527376], technical replicate 2, the entry reads viability, normalised (%) = 95.1; inactive.
With SRC (SRC proto-oncogene, non-receptor tyrosine kinase) [SID405527376], technical replicate 3 the deposit lists viability, normalised (%) = 82.7; inactive.
With PCDHB2 (protocadherin beta 2) [SID405527124], technical replicate 1, the entry reads viability, normalised (%) = 41.7; active.
With PCDHB2 (protocadherin beta 2) [SID405527124], technical replicate 2, the values are viability, normalised (%) = 43.7; active.
For PCDHB2 (protocadherin beta 2) [SID405527124], technical replicate 3, the values are viability, normalised (%) = 47.6; active.

Records listed so far whose gene name starts with N or n (3):
NEK10 (NIMA related kinase 10) [SID405527542], technical replicate 1: viability, normalised (%) = 98.4; outcome = inactive
NEK10 (NIMA related kinase 10) [SID405527542], technical replicate 2: viability, normalised (%) = 102; outcome = inactive
NEK10 (NIMA related kinase 10) [SID405527542], technical replicate 3: viability, normalised (%) = 104; outcome = inactive
